PubChem BioAssay AID504774 – Drosophila RNAi Screening Center, 2011
In all, the deposit lists about 23,000 reagents; this is an unselected part of those with a known target gene and a result. 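Values are quantile-normalised luminescence on an arbitrary scale; higher means more cells surviving MMS.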 Names joined by + are all predicted targets of the reagent. Further read-outs or replicates are left out here.

- Purpose: 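Fly genes whose loss alters survival after alkylation damage to DNA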 (primary screen)
- System: Drosophila Kc167 cells
- Reagents: long dsRNA against Drosophila genes, about 0.25 µg dsRNA per well
- Time to read-out: about 6 days: 3 days knock-down, then 3 days with or without MMS
- Conditions: methyl methanesulphonate 0.004% (w/v) for 3 days after knock-down
- Measurement: 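ATP-dependent luminescence as a measure of live cells in MMS-exposed wells, quantile normalised within each plate, with replicate values also given as a mean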
- Reading the numbers: mean viability with MMS and viability with MMS: higher = more surviving cells after MMS

For CG4613 [DRSC10435], what does the deposit list?
mean viability with MMS: 3.45e6; viability with MMS, replicate 1: 3.82e6

For CG11474 [DRSC04112], how do the results read?
mean viability with MMS: 3.69e6; viability with MMS, replicate 1: 4.31e6

With CG15864 [DRSC15122], what does the deposit list?
mean viability with MMS: 3.40e6; viability with MMS, replicate 1: 3.91e6

Which result is listed for CG2258 [DRSC18222]?
mean viability with MMS: 3.63e6; viability with MMS, replicate 1: 3.95e6

With zyd [DRSC20716], what was measured?
mean viability with MMS: 3.56e6; viability with MMS, replicate 1: 3.99e6

What did the screen give for GAPsec [DRSC10564]?
mean viability with MMS: 3.59e6; viability with MMS, replicate 1: 4.04e6

With insc [DRSC04695], how do the results read?
mean viability with MMS: 3.58e6; viability with MMS, replicate 1: 4.06e6

For RabGGTa [DRSC12189], what was measured?
mean viability with MMS: 3.53e6; viability with MMS, replicate 1: 4.07e6

What is on record for CG6650 [DRSC10685]?
mean viability with MMS: 3.44e6; viability with MMS, replicate 1: 4.05e6

For Xport-A + Xport-B [DRSC15586], how do the results read?
mean viability with MMS: 3.62e6; viability with MMS, replicate 1: 4.05e6

With CG12446 [DRSC20618], what does the deposit list?
mean viability with MMS: 3.55e6; viability with MMS, replicate 1: 4.11e6

With CG5003 [DRSC15694], what was measured?
mean viability with MMS: 3.58e6; viability with MMS, replicate 1: 3.99e6

What did the screen give for CG3106 [DRSC18279]?
mean viability with MMS: 3.22e6; viability with MMS, replicate 1: 4.22e6

What did the screen give for tgo [DRSC17077]?
mean viability with MMS: 3.62e6; viability with MMS, replicate 1: 4.17e6

How did the screen score CG13408 [DRSC13534]?
mean viability with MMS: 3.56e6; viability with MMS, replicate 1: 4.08e6

What is on record for CG13408 [DRSC14584]?
mean viability with MMS: 3.49e6; viability with MMS, replicate 1: 3.91e6

For Exo84 [DRSC15965], how do the results read?
mean viability with MMS: 3.44e6; viability with MMS, replicate 1: 3.87e6

With FarO [DRSC18475], what does the deposit list?
mean viability with MMS: 3.66e6; viability with MMS, replicate 1: 4.03e6

For RpL27A [DRSC00781], what was measured?
mean viability with MMS: 2.71e6; viability with MMS, replicate 1: 3.25e6

What did the screen give for CG9147 [DRSC03147]?
mean viability with MMS: 3.49e6; viability with MMS, replicate 1: 3.97e6

Which result is listed for CG31848 [DRSC01309]?
mean viability with MMS: 3.59e6; viability with MMS, replicate 1: 4.17e6

Which result is listed for CG7368 [DRSC10826]?
mean viability with MMS: 3.47e6; viability with MMS, replicate 1: 3.75e6

For CG7368 [DRSC22821], what does the deposit list?
mean viability with MMS: 3.40e6; viability with MMS, replicate 1: 3.98e6

How did the screen score CG9445 [DRSC05006]?
mean viability with MMS: 3.68e6; viability with MMS, replicate 1: 4.21e6

For Snrk [DRSC07192], what does the deposit list?
mean viability with MMS: 3.46e6; viability with MMS, replicate 1: 3.80e6

Which result is listed for Snrk [DRSC23332]?
mean viability with MMS: 3.57e6; viability with MMS, replicate 1: 4.08e6

What did the screen give for Mitf [DRSC17212]?
mean viability with MMS: 3.80e6; viability with MMS, replicate 1: 4.28e6

How did the screen score Mitf [DRSC21056]?
mean viability with MMS: 3.54e6; viability with MMS, replicate 1: 4.12e6

What is on record for Mabi [DRSC02489]?
mean viability with MMS: 3.76e6; viability with MMS, replicate 1: 3.94e6

For CG30091 [DRSC21809], how do the results read?
mean viability with MMS: 3.44e6; viability with MMS, replicate 1: 3.97e6

With CG15642 [DRSC19678], what does the deposit list?
mean viability with MMS: 3.59e6; viability with MMS, replicate 1: 4.05e6

Which result is listed for Cht5 [DRSC16470]?
mean viability with MMS: 3.43e6; viability with MMS, replicate 1: 3.86e6

For CG13829 [DRSC14679], what was measured?
mean viability with MMS: 3.62e6; viability with MMS, replicate 1: 4.15e6

How did the screen score CG15882 [DRSC19735]?
mean viability with MMS: 3.49e6; viability with MMS, replicate 1: 3.98e6

Which result is listed for Pitslre [DRSC11874]?
mean viability with MMS: 3.33e6; viability with MMS, replicate 1: 3.72e6

With Pitslre [DRSC23346], what does the deposit list?
mean viability with MMS: 1.44e6; viability with MMS, replicate 1: 1.31e6

What did the screen give for CG42741 [DRSC04593]?
mean viability with MMS: 3.54e6; viability with MMS, replicate 1: 4.15e6

For CG42741 [DRSC22045], how do the results read?
mean viability with MMS: 3.62e6; viability with MMS, replicate 1: 4.05e6

With Ost48 [DRSC18693], how do the results read?
mean viability with MMS: 3.68e6; viability with MMS, replicate 1: 4.13e6

For Oatp58Db [DRSC04364], what does the deposit list?
mean viability with MMS: 3.24e6; viability with MMS, replicate 1: 3.71e6

For Gr98a [DRSC14719], how do the results read?
mean viability with MMS: 1.77e6; viability with MMS, replicate 1: 3.98e6

How did the screen score Grl36b [DRSC01627]?
mean viability with MMS: 3.35e6; viability with MMS, replicate 1: 3.69e6

Which result is listed for ProRS-m [DRSC08261]?
mean viability with MMS: 3.44e6; viability with MMS, replicate 1: 3.93e6

For RpL24-like [DRSC16111], what does the deposit list?
mean viability with MMS: 3.50e6; viability with MMS, replicate 1: 4.00e6

For srp [DRSC13125], what does the deposit list?
mean viability with MMS: 3.52e6; viability with MMS, replicate 1: 3.92e6

What is on record for srp [DRSC17068]?
mean viability with MMS: 2.62e6; viability with MMS, replicate 1: 3.54e6

For srp [DRSC23166], what does the deposit list?
mean viability with MMS: 2.75e6; viability with MMS, replicate 1: 3.60e6

Part of the list above in another layout:
{"target gene":"RpL27A","amplicon":"DRSC00781","mean viability with MMS":2.71e6,"viability with MMS, replicate 1":3.25e6}
{"target gene":"CG9147","amplicon":"DRSC03147","mean viability with MMS":3.49e6,"viability with MMS, replicate 1":3.97e6}
{"target gene":"CG31848","amplicon":"DRSC01309","mean viability with MMS":3.59e6,"viability with MMS, replicate 1":4.17e6}
{"target gene":"CG7368","amplicon":"DRSC10826","mean viability with MMS":3.47e6,"viability with MMS, replicate 1":3.75e6}
{"target gene":"CG7368","amplicon":"DRSC22821","mean viability with MMS":3.40e6,"viability with MMS, replicate 1":3.98e6}
{"target gene":"CG9445","amplicon":"DRSC05006","mean viability with MMS":3.68e6,"viability with MMS, replicate 1":4.21e6}
